# Percent effect of library compounds

By UniProt entry, the sequences of proteins in these tests, tags left out.
UniProt P9WNZ1, whole entry: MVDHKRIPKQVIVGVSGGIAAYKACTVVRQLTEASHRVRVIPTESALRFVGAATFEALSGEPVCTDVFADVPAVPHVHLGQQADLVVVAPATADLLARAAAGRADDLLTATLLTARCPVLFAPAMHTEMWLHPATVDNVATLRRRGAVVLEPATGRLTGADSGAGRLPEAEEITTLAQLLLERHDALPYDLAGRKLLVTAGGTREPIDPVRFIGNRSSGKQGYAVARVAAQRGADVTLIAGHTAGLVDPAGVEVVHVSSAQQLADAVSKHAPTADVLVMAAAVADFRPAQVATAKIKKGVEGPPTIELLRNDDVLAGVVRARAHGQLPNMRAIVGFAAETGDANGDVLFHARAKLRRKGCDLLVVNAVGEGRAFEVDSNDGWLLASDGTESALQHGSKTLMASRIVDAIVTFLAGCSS

Measurements from “University of Dundee, Small-Polar-MMV Screening Library” (2021), ChEMBL document CHEMBL3988442.

Results are given as percent effect. How 0% and 100% were set is not recorded. Most values in the screen are low, and negative values occur. This is an unselected part of the compounds tested. Two or more numbers in one place are separate tests of the same structure; such repeats can differ widely.

A: 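Enzyme assay of CoaBC with a phosphate dye (Biomol Green) read at 650 nm. Target: Coenzyme A biosynthesis protein CoaBC, Mycobacterium tuberculosis (UniProt P9WNZ1). Concentration: 30 µM. Direction is inferred from only a few compounds that gave an IC50; most scored high, so higher reads as stronger inhibition. Most strong results did not repeat in a second test. Of about 67,000 compounds tested this way, about 40 (0.06%) reached 50% or more in at least one test.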
B: 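Cell assay of Leishmania donovani living inside macrophages; the read-out is not stated. Tested at 30 µM. Direction is inferred from retests: higher values go with stronger inhibition. Of about 69,000 compounds tested this way, about 1,000 (1.5%) reached 50% or more in at least one test.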

{"compound": "CC(=O)c1cccc(NC(=O)CCn2nc(-c3cccs3)oc2=O)c1", "A": 2.682, "B": 6.593}
{"compound": "CCc1nc(CCn2cc(-c3nccn3C)nn2)no1", "A": -4.032, "B": 10.83}
{"compound": "Cc1cc(CNC2(c3ccc(Cl)cc3)CC2)no1", "A": 7.589, "B": 5.112}
{"compound": "COc1ccc(CCNC(=O)N2CCCC(c3nncn3C)C2)cc1", "stereo": "stereo unspecified", "A": 2.867, "B": -9.146}
{"compound": "CCC(C)(C)NC(=O)c1ncn2c1CN(C)S(=O)(=O)c1ccccc1-2.O=C(O)C(F)(F)F", "B": 21.85}
{"compound": "O=C1CO[C@H]2CN(Cc3cccnc3)C[C@H]2N1", "A": 13.91}
{"compound": "CC(SCCC(=O)NC(N)=O)c1c(F)cccc1F", "stereo": "stereo unspecified", "A": -1.789, "B": 27.32}
{"compound": "CCN(CCN1CCCCCC1)C(=O)COc1cccnc1", "A": -9.719, "B": 2.081}
{"compound": "CCCN1C(=O)CC2(CCCNC2)C1=O", "stereo": "stereo unspecified", "A": 6.046}
{"compound": "O=C([C@H]1CC[C@@H]2[C@@H](CCN2Cc2ccsc2)O1)N1CCOCC1", "A": 5.863}
{"compound": "O=C(CCN1CCc2ccccc21)N1C[C@@H](O)[C@H](N2CCCC2)C1", "A": -3.09, "B": 12.6}
{"compound": "CCOCCN1CCN(c2ncccc2C#N)CC1CC", "stereo": "stereo unspecified", "A": 6.149, "B": 21.24}
{"compound": "Cc1ccc(OCC(=O)NS(=O)(=O)c2c(C)noc2C)cc1C", "A": 1.295, "B": 9.607}
{"compound": "CCCc1cc(C(=O)NCCCn2nnc3ccccc32)no1", "A": -2.211, "B": 25.23}
{"compound": "Cc1cccc(NC(=O)C2CSc3ncc(C)c(=O)n3C2)n1", "stereo": "stereo unspecified", "A": 3.562, "B": "14.17 & 3.432"}
{"compound": "N#CCCN(C(=O)CN1CCCC1c1ccccc1Cl)c1ccccc1", "stereo": "stereo unspecified", "A": 3.175, "B": 10.96}
{"compound": "NC(=O)C1CCCN1C(=O)c1cccc2c1OCO2", "stereo": "stereo unspecified", "A": -2.336, "B": -0.4744}
{"compound": "CCCn1[nH]c(CNc2cccc(Cl)c2)nc1=O", "A": -1.772, "B": "4.999 & -0.4639"}
{"compound": "Cc1nccc([C@@H]2C[C@@H]3CCN(S(=O)(=O)C4CC4)C[C@H]3O2)n1", "A": -2.716}
{"compound": "O=C(O)C(F)(F)F.O=C(O)C(F)(F)F.O=C(O)c1c(-c2cccnc2)ncc2c1CCN(Cc1ccccn1)C2", "B": 25.52}
{"compound": "CCn1cc2c(n1)CN(Cc1nccs1)CC2COCC1CC1", "stereo": "stereo unspecified", "A": 0}
{"compound": "CCn1cnnc1CNC(=O)N1CCOC(c2ccc(F)cc2)C1", "stereo": "stereo unspecified", "A": -2.577, "B": 32.92}
{"compound": "O=C(O)C(F)(F)F.O=C(O)C(F)(F)F.c1cncc(-c2ncnc3c2CCN(Cc2ccsc2)CC3)c1", "B": -15.18}
{"compound": "CC(C)CN1CCc2[nH]cnc2C12CCN(C(=O)c1cccnc1)CC2", "A": -0.8929, "B": 6.15}
{"compound": "CN1CC(=O)N(c2cccnc2)CC12CCN(C(=O)C1CCCCC1)C2.O=C(O)C(F)(F)F.O=C(O)C(F)(F)F", "stereo": "stereo unspecified", "B": -42.76}
{"compound": "CC(C)N1CCc2nnc(COc3cncnc3)n2CC1", "A": -12.61}
{"compound": "COc1nn(C)c2c1CCCN(C(=O)c1cnccn1)C2", "A": -1.975, "B": 22.01}
{"compound": "CO[C@@H]1CCN(Cc2ccc(C)o2)[C@H]1Cc1ccccc1.O=C(O)C(F)(F)F", "B": 15.5}
{"compound": "c1ccc(-c2cnc(CN3CCCC3Cn3cccn3)o2)cc1", "stereo": "stereo unspecified", "A": 3.636, "B": -1.431}
{"compound": "Cc1ccc(CN2CC[C@H]3[C@H]2CCN3S(C)(=O)=O)s1", "A": 7.992}
{"compound": "Cn1c(-c2ccc(F)cc2)cn2cc(C(=O)N3CC[C@@H](O)C3)nc2c1=O", "A": 10.64, "B": 16.41}
{"compound": "Cc1nc(CN2CC(CO)Oc3ccccc32)sc1C", "stereo": "stereo unspecified", "A": 2.355, "B": -6.996}

The first 2 entries again:

Compound,A,B
CC(=O)c1cccc(NC(=O)CCn2nc(-c3cccs3)oc2=O)c1,2.682,6.593
CCc1nc(CCn2cc(-c3nccn3C)nn2)no1,-4.032,10.83